Data: the supplement of paper PMC10849652
Some of the results follow.

Chains of the proteins cited; added tags and fusions are not shown. Lines headed by an entry give the natural chain unless they say otherwise; changes in a name come on top.
UniProt O14617: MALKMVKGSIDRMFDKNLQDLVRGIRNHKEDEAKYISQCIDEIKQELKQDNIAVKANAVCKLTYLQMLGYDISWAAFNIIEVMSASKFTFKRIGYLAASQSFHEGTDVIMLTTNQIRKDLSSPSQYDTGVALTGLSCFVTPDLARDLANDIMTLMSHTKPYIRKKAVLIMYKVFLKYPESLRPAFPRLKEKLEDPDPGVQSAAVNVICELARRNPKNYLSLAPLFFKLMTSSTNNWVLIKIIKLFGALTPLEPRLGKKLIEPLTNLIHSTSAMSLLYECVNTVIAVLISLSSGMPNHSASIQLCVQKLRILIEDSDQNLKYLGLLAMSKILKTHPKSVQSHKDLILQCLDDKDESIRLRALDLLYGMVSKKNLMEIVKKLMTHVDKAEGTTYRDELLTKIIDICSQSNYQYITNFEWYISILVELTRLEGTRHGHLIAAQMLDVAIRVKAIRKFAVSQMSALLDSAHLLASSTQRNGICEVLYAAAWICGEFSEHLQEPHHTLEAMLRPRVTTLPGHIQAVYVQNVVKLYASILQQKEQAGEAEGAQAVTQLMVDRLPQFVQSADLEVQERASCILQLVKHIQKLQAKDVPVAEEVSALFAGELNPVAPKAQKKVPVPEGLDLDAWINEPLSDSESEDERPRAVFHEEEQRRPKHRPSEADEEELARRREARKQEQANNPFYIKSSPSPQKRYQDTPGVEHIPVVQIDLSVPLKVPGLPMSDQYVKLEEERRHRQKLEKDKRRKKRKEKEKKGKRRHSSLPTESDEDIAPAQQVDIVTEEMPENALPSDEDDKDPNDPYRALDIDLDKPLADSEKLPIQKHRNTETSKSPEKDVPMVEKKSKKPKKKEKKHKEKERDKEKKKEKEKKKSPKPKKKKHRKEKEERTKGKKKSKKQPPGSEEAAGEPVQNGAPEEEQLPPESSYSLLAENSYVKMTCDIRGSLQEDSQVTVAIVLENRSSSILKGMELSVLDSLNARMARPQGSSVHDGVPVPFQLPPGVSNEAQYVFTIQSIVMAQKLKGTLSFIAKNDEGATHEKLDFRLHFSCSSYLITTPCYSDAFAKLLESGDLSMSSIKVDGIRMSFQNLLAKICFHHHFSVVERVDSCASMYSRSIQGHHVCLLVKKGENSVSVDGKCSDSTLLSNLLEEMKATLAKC
UniProt Q9UJX5, whole entry, looked up: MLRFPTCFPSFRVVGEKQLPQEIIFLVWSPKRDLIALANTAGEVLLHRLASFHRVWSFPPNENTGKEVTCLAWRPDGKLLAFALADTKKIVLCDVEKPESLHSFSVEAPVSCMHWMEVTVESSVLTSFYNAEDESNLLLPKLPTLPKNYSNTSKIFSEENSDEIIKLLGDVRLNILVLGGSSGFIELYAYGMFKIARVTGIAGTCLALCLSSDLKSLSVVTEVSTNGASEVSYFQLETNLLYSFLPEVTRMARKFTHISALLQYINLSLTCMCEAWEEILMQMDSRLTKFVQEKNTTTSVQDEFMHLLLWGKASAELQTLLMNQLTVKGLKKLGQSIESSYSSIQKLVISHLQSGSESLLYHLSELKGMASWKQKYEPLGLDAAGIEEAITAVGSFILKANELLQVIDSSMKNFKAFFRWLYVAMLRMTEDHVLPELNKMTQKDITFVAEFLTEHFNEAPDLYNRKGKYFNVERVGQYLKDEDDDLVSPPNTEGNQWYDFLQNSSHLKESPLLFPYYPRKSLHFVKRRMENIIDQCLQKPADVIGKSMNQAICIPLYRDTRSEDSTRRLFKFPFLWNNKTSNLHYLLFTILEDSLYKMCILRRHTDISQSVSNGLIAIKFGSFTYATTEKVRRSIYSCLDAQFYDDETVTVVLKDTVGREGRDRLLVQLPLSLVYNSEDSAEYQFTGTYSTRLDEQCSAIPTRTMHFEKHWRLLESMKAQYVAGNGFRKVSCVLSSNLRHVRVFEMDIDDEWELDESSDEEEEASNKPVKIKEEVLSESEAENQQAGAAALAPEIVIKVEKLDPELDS
UniProt Q8NB46: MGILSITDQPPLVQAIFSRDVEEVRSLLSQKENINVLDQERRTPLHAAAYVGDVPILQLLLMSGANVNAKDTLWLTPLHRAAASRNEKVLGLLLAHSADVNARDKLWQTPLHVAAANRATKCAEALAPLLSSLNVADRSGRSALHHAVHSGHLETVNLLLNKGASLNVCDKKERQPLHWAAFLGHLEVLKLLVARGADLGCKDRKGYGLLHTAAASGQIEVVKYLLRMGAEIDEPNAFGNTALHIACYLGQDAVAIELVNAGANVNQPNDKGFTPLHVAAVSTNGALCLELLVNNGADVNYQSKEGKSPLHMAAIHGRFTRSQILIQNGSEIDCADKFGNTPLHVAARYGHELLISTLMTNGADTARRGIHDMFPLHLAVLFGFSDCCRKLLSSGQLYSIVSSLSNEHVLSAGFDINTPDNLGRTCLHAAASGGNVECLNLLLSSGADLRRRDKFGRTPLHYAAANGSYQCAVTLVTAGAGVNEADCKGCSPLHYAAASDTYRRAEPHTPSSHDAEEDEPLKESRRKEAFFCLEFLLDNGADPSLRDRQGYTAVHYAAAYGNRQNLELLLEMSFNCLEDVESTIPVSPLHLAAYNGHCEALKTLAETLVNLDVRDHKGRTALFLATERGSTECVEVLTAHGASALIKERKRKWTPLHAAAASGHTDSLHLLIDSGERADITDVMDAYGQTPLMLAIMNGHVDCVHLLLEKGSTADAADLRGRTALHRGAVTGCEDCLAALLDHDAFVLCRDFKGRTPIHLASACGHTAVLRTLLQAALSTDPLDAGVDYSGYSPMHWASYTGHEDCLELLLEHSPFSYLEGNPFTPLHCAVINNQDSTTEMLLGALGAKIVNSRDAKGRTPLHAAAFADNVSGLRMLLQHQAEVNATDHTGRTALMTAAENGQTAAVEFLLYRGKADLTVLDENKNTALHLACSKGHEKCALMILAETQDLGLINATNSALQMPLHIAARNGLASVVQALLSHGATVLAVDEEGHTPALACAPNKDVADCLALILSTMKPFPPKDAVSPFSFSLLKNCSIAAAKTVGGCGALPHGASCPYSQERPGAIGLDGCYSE
UniProt Q9UJX4, whole entry, looked up: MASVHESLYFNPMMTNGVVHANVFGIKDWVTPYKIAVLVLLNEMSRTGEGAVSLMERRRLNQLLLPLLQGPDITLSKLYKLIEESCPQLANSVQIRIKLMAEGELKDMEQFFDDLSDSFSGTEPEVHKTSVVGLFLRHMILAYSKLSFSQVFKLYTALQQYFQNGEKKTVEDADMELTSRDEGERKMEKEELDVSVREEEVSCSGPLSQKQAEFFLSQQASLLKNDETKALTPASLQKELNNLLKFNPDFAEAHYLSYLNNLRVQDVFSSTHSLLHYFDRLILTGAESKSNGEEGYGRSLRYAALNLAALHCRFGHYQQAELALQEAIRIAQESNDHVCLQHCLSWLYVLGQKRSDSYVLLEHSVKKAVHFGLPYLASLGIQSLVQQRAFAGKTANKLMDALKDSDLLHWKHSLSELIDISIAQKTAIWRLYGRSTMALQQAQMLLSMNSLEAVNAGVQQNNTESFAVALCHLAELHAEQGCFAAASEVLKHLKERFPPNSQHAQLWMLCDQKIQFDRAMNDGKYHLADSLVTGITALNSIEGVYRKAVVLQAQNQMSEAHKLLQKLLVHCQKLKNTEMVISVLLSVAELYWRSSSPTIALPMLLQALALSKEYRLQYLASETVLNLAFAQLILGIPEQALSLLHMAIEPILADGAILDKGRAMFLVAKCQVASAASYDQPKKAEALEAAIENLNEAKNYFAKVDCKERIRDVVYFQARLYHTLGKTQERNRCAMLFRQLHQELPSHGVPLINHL
UniProt Q9NXR5: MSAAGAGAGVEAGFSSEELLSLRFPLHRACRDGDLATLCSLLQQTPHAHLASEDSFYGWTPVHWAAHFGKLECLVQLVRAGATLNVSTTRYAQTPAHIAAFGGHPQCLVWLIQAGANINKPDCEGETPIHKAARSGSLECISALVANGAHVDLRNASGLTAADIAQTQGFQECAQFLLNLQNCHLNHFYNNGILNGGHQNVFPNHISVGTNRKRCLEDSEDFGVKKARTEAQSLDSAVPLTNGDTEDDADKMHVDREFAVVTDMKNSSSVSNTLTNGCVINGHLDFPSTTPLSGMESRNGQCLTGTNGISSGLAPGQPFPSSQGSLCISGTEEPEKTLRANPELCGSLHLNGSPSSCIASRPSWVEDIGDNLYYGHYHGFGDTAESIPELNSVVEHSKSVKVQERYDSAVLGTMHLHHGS
UniProt Q5I7T1: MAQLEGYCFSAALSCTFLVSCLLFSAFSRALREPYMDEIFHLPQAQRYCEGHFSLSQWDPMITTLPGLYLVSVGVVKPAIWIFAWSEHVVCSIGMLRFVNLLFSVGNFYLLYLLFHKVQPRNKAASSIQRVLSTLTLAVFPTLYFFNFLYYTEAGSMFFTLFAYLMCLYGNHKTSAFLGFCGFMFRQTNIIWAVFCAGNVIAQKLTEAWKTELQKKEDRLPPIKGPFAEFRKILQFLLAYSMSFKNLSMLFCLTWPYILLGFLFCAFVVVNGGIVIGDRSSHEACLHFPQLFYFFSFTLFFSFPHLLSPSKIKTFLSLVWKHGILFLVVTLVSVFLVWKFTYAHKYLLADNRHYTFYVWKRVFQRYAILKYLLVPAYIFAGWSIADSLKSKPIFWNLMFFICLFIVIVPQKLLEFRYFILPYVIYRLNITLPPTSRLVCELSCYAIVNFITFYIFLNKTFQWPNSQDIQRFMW
UniProt O95782: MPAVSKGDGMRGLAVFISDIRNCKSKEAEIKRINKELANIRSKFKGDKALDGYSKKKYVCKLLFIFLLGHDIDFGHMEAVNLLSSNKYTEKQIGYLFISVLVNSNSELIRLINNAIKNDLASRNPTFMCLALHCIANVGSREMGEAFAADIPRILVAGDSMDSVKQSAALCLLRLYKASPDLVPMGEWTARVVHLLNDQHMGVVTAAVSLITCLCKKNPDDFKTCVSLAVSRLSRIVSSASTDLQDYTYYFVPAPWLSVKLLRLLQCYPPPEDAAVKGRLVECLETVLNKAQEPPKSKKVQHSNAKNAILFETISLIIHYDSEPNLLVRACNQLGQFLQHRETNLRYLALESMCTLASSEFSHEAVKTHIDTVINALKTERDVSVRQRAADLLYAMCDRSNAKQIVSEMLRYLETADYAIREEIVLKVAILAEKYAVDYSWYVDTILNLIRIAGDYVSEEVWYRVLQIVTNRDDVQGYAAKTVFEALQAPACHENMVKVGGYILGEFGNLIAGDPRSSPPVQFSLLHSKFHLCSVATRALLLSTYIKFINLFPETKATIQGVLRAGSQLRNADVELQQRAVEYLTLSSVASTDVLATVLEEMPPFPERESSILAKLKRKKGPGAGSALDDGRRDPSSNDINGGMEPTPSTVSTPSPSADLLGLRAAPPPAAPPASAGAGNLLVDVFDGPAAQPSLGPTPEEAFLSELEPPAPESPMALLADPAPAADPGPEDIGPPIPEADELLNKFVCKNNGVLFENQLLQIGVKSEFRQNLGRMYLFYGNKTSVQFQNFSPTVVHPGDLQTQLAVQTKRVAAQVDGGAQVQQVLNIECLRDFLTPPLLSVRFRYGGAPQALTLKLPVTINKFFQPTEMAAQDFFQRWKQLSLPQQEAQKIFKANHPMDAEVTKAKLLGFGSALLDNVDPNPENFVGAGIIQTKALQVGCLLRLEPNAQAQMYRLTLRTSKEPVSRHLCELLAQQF
UniProt Q96PC3: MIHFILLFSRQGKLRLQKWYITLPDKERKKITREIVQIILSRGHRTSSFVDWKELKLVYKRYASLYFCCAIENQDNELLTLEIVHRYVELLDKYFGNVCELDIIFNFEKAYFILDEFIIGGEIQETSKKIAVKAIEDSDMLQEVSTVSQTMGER
UniProt Q9Y303: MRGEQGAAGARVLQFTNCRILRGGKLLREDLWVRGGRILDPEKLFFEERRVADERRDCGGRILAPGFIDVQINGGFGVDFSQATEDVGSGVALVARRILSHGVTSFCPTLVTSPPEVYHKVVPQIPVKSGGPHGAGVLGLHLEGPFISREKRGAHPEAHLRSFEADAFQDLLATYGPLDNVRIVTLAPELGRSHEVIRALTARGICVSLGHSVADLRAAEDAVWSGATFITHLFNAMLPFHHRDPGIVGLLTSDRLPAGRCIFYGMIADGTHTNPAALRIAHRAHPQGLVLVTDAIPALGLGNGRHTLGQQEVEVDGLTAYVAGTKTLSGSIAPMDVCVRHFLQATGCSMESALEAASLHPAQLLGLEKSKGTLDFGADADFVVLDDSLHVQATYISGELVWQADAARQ
UniProt Q63HQ0: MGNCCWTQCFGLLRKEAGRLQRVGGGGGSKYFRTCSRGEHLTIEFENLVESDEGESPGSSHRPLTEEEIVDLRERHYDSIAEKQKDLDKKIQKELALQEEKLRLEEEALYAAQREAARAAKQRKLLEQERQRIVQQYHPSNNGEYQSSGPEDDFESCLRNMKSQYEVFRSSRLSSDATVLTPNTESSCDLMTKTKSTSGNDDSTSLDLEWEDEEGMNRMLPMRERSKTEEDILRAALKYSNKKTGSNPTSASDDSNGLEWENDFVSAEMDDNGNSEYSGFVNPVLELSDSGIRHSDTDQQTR

Experiments:
Experiment in all cases: log2 fold change, soluble protein after heating vs DMSO (PISA); higher = thermal stabilisation; K562 lysate, 10 uM; active = over 0.2 and 3.5 SD of the protein, either way, in both replicates (recomputed)
ibrutinib = compound: C=CC(=O)N1CCC[C@@H](n2nc(-c3ccc(Oc4ccccc4)cc3)c3c(N)ncnc32)C1 [ibrutinib]
Summary of the method: (§1)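 Values give the log-two fold change in thermal stability against solvent controls, from duplicates. Crude K562 extract at 1 mg/mL protein, made by dounce homogenisation in PBS pH 7.4 with 1 mM MgCl2, was treated with 10 μM compound for 30 min. After 3 min heating across 48°C-58°C, aliquots were pooled, adjusted to 0.5% NP-40 at 4°C and centrifuged at 21,000xg for 90 min. The supernatant was measured by TMTpro 16plex LC-MS/MS with channel sums equalised.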

[1] = compound: CC(=O)c1cnc2ccc(-c3cc(Cl)c(O)c(Cl)c3)nc2c1N[C@H]1CC[C@H](CN(C)C)CC1
Summary of the method: as §1

ralimetinib = compound: CC(C)(C)Cn1c(N)nc2ccc(-c3[nH]c(C(C)(C)C)nc3-c3ccc(F)cc3)nc21 [ralimetinib]
Summary of the method: as §1

[2] = compound: CC(C)(O)CC(=O)NCCn1ccc2ncnc(Nc3ccc(Oc4cccc(C(F)(F)F)c4)c(Cl)c3)c21
Summary of the method: as §1

[3] = compound: CC(C)C1=C2N=C(C=C(N2N=C1)NCC3=CC=CC=C3)NCCCCCCN
Summary of the method: as §1

[4] = compound: CC1=C(C(CC(=O)N1)C2=CC=C(C=C2)C(F)(F)F)C(=O)NC3=C(C=C4C(=C3)C=NN4)F
Summary of the method: as §1

[5] = compound: CC1=C(C2=C(C=C1)C(=O)C3=CC=CC=C3N2CCCN)C
Summary of the method: as §1

[6] = compound: CC1=C(C=C(C=C1)NC(=O)C2=CC(=CC=C2)C(C)(C)C#N)NC3=CC4=C(C=C3)N=CN(C4=O)C
Summary of the method: as §1

[7] = compound: CC1=C(C=C(C=C1)NC(=O)C2=CC(=CC=C2)N(C)C)NC(=O)C3=CC=C(C=C3)O
Summary of the method: as §1

[8] = compound: CC1=CC=C(C=C1)SC2=C3C=C(SC3=CN=C2)C(=O)N
Summary of the method: as §1

vemurafenib = compound: CCCS(=O)(=O)Nc1ccc(F)c(C(=O)c2c[nH]c3ncc(-c4ccc(Cl)cc4)cc23)c1F [vemurafenib]
Summary of the method: as §1

[9] = compound: CCCS(=O)(=O)Nc1ccc(F)c(C(=O)c2c[nH]c3ncc(Cl)cc23)c1F
Summary of the method: as §1

barasertib = compound: CCN(CCCOc1ccc2c(Nc3cc(CC(=O)Nc4cccc(F)c4)[nH]n3)ncnc2c1)CCOP(=O)(O)O [barasertib]
Summary of the method: as §1

[10] = compound: CC[C@@H]1C(=O)N(C)c2cnc(Nc3ccc(C(=O)NC4CCN(C)CC4)cc3OC)nc2N1C1CCCC1
Summary of the method: as §1

volasertib = compound: CC[C@@H]1C(=O)N(C)c2cnc(Nc3ccc(C(=O)N[C@H]4CC[C@H](N5CCN(CC6CC6)CC5)CC4)cc3OC)nc2N1C(C)C [volasertib]
Summary of the method: as §1

[11] = compound: CCn1c(C(=O)N(C2CC2)C2CC2)cc2c3c(ncn3C)c(Nc3cc(C)n(C)n3)nc21
Summary of the method: as §1

[12] = compound: CCn1cc(-c2ccnc3[nH]c(-c4cccc(CN(C)C)c4)cc23)c(-c2ccc(NC(=O)N(C)C)cc2)n1
Summary of the method: as §1

[13] = compound: CN1CCC(CNc2ccc3ncc(-c4cccc(OC(F)(F)F)c4)n3n2)CC1
Summary of the method: as §1

saracatinib = compound: CN1CCN(CCOc2cc(OC3CCOCC3)c3c(Nc4c(Cl)ccc5c4OCO5)ncnc3c2)CC1 [saracatinib]
Summary of the method: as §1

sotrastaurin = compound: CN1CCN(c2nc(C3=C(c4c[nH]c5ccccc45)C(=O)NC3=O)c3ccccc3n2)CC1 [sotrastaurin]
Summary of the method: as §1

Measured: log2 fold change

AP3D1 isoform 5 (UniProt O14617)
inactive: ibrutinib 0.033 | [1] -0.012 | ralimetinib 0.028 | [2] -0.012 | [3] -0.007 | [4] -0.014 | [5] -0.024 | [6] 0.011 | [7] 0.01 | [8] 0.006 | vemurafenib -0.001 | [9] -0.002 | barasertib 0.036 | [10] -0.004 | volasertib 0 | [11] 0.002 | [12] -0.08 | [13] 0.034 | saracatinib 0.001 | sotrastaurin 0.013

ANAPC4 isoform 3 (UniProt Q9UJX5)
inactive: ibrutinib 0.021 | [1] -0.019 | ralimetinib 0.028 | [2] -0.02 | [3] -0.001 | [4] 0.013 | [5] -0.003 | [6] 0.049 | [7] -0.001 | [8] -0.023 | vemurafenib 0.035 | [9] 0.027 | barasertib 0.007 | [10] 0.024 | volasertib -0.029 | [11] -0.005 | [12] -0.022 | [13] 0.01 | saracatinib 0.006 | sotrastaurin 0

ANKRD52 (UniProt Q8NB46)
inactive: ibrutinib 0.01 | [1] -0.089 | ralimetinib -0.002 | [2] -0.025 | [3] 0.022 | [4] 0.007 | [5] -0.058 | [6] 0.011 | [7] 0.047 | vemurafenib -0.052 | [9] 0.032 | barasertib 0.029 | [10] -0.019 | volasertib 0.097 | [11] 0.063 | [12] 0.061 | [13] -0.015 | saracatinib -0.022 | sotrastaurin -0.008
active: [8] -0.363

ANAPC5 (UniProt Q9UJX4)
inactive: ibrutinib 0.032 | [1] -0.006 | ralimetinib 0.033 | [2] -0.074 | [3] 0.014 | [4] 0.016 | [5] -0.013 | [6] 0.024 | [7] 0.022 | [8] 0.02 | vemurafenib -0.001 | [9] 0.012 | barasertib 0.019 | [10] -0.004 | volasertib -0.032 | [11] 0.013 | [12] -0.016 | [13] -0.055 | saracatinib 0.021 | sotrastaurin -0.027

ANKRD10 (UniProt Q9NXR5)
inactive: ibrutinib -0.076 | [1] -0.172 | ralimetinib 0.005 | [2] 0.042 | [3] -0.023 | [4] 0.046 | [5] 0.004 | [6] -0.008 | [7] 0.046 | [8] -0.085 | vemurafenib 0.056 | [9] -0.035 | barasertib 0.137 | volasertib 0.1 | [11] 0.115 | [12] -0.19 | [13] -0.022 | saracatinib 0.017 | sotrastaurin 0.01

2 entries picked at random from those above, as already listed:
ANAPC4 isoform 3 (UniProt Q9UJX5)
inactive: ibrutinib 0.021 | [1] -0.019 | ralimetinib 0.028 | [2] -0.02 | [3] -0.001 | [4] 0.013 | [5] -0.003 | [6] 0.049 | [7] -0.001 | [8] -0.023 | vemurafenib 0.035 | [9] 0.027 | barasertib 0.007 | [10] 0.024 | volasertib -0.029 | [11] -0.005 | [12] -0.022 | [13] 0.01 | saracatinib 0.006 | sotrastaurin 0

ANAPC5 (UniProt Q9UJX4)
inactive: ibrutinib 0.032 | [1] -0.006 | ralimetinib 0.033 | [2] -0.074 | [3] 0.014 | [4] 0.016 | [5] -0.013 | [6] 0.024 | [7] 0.022 | [8] 0.02 | vemurafenib -0.001 | [9] 0.012 | barasertib 0.019 | [10] -0.004 | volasertib -0.032 | [11] 0.013 | [12] -0.016 | [13] -0.055 | saracatinib 0.021 | sotrastaurin -0.027

(list continues)

ALG10B (UniProt Q5I7T1)
inactive: ibrutinib -0.067 | [1] -0.075 | ralimetinib -0.021 | [2] 0.017 | [3] 0.004 | [4] -0.008 | [5] 0.056 | [6] -0.034 | [7] 0.011 | [8] -0.073 | [9] 0.039 | barasertib -0.024 | volasertib -0.06 | [11] 0.007 | [12] -0.117 | [13] 0.011 | saracatinib 0.098 | sotrastaurin 0.054

ANXA3 (UniProt P12429)
inactive: ibrutinib 0.013 | [1] 0.018 | ralimetinib 0.004 | [2] 0.031 | [3] 0.015 | [4] 0.023 | [5] 0.002 | [6] -0.015 | [7] 0.005 | [8] 0.017 | vemurafenib -0.023 | [9] 0.009 | barasertib 0.01 | [10] -0.006 | volasertib -0.017 | [11] 0.015 | [12] -0.025 | [13] -0.011 | saracatinib -0.006 | sotrastaurin 0.046

AP2A1 (UniProt O95782)
inactive: ibrutinib 0 | [1] 0.022 | ralimetinib -0.005 | [2] 0 | [3] -0.009 | [4] -0.007 | [5] 0 | [6] 0.039 | [7] -0.015 | [8] -0.003 | vemurafenib -0.009 | [9] 0.015 | barasertib 0.011 | [10] 0.004 | volasertib -0.01 | [11] 0.005 | [12] -0.053 | [13] 0.023 | saracatinib -0.031 | sotrastaurin -0.016

AP1S3 isoform 4 (UniProt Q96PC3)
inactive: ibrutinib 0.106 | [1] 0.014 | ralimetinib 0.013 | [2] -0.099 | [3] -0.052 | [4] 0.089 | [5] 0.016 | [7] -0.068 | [8] -0.009 | [9] -0.016 | barasertib -0.365 | volasertib -0.101 | [11] 0.082 | [12] -0.16 | [13] -0.002 | saracatinib -0.047

AMDHD2 isoform 3 (UniProt Q9Y303)
inactive: ibrutinib 0.032 | [1] 0.006 | ralimetinib -0.059 | [2] -0.025 | [3] -0.011 | [4] 0.009 | [5] 0.013 | [6] -0.015 | [7] -0.017 | [8] -0.017 | vemurafenib 0.009 | [9] 0.019 | barasertib -0.021 | [10] 0.003 | volasertib 0.015 | [11] -0.024 | [12] -0.031 | [13] 0.005 | saracatinib -0.007 | sotrastaurin 0.019

AP1AR (UniProt Q63HQ0)
inactive: ibrutinib 0.016 | [1] 0.016 | ralimetinib -0.002 | [2] 0.036 | [3] 0.03 | [4] -0.063 | [6] 0.027 | [7] 0.085 | [8] 0.004 | vemurafenib 0.031 | [9] -0.016 | barasertib -0.025 | [10] 0.055 | volasertib -0.009 | [11] 0.017 | [12] 0.017 | [13] -0.044 | sotrastaurin 0.059

ALKBH5 (UniProt Q6P6C2)
inactive: ibrutinib -0.009 | [1] -0.125 | ralimetinib -0.183 | [2] -0.203 | [3] 0.005 | [4] -0.122 | [5] -0.07 | [6] 0.008 | [7] -0.021 | [8] -0.085 | vemurafenib 0.026 | [9] 0.012 | barasertib 0.065 | [10] 0.052 | volasertib -0.038 | [11] -0.143 | [12] -0.071 | [13] 0.019 | saracatinib 0.017 | sotrastaurin -0.056

AMZ2 (UniProt Q86W34)
inactive: ibrutinib -0.01 | [1] -0.028 | ralimetinib -0.007 | [2] -0.034 | [3] -0.021 | [4] 0.036 | [5] 0.005 | [6] -0.029 | [7] -0.005 | [8] -0.019 | vemurafenib 0.053 | [9] 0.051 | barasertib -0.076 | [10] 0.044 | volasertib -0.071 | [11] -0.015 | saracatinib 0.049 | sotrastaurin 0.034

ANAPC1 (UniProt Q9H1A4)
inactive: ibrutinib 0.024 | [1] -0.005 | ralimetinib 0 | [2] -0.008 | [3] 0.013 | [4] 0.009 | [5] -0.008 | [6] -0.002 | [7] 0.01 | [8] -0.003 | vemurafenib 0.005 | [9] 0.041 | barasertib 0.036 | [10] 0.016 | volasertib -0.046 | [11] 0.011 | [12] -0.081 | [13] 0.019 | saracatinib 0.026 | sotrastaurin -0.003

ANXA2 isoform 2 (UniProt P07355)
inactive: ibrutinib -0.013 | [1] 0.012 | ralimetinib -0.009 | [2] 0.033 | [3] -0.01 | [4] 0.006 | [5] 0.048 | [6] -0.024 | [7] -0.01 | [8] 0.013 | vemurafenib -0.03 | [9] -0.004 | barasertib -0.021 | [10] 0 | volasertib 0.017 | [11] 0.033 | [12] -0.003 | [13] -0.02 | saracatinib 0.013 | sotrastaurin -0.012

ANKRD30B (UniProt Q9BXX2)
active: [12] -0.755
inactive: ibrutinib -0.063 | [1] -0.086 | ralimetinib -0.007 | [2] -0.16 | [3] 0.038 | [4] -0.098 | [5] -0.064 | [7] 0.024 | [8] -0.167 | vemurafenib 0.136 | [9] 0.024 | barasertib 0.047 | [10] 0.012 | volasertib 0.003 | [11] -0.055 | [13] 0.281 | saracatinib 0.04
